In this assay the target is histidine triad nucleotide binding protein 3 (HINT3) (human (endogenous in HPAECs)) (UniProt Q9NQE9). Kind of assay: co-IP.

Amino acid sequences for entries named in this document (tags omitted).
UniProt Q9NQE9: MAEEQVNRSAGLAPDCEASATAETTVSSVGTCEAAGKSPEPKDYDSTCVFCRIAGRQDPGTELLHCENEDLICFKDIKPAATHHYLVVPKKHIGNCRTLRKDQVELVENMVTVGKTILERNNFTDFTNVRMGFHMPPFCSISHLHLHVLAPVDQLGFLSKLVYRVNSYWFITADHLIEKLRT
UniProt P10415: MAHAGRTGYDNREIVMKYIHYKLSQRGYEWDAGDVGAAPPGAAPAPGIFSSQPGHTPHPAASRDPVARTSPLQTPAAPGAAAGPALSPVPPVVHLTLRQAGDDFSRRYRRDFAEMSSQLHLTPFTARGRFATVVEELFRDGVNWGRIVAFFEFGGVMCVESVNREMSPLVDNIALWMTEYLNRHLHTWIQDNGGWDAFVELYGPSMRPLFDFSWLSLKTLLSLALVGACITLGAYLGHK
UniProt P51784: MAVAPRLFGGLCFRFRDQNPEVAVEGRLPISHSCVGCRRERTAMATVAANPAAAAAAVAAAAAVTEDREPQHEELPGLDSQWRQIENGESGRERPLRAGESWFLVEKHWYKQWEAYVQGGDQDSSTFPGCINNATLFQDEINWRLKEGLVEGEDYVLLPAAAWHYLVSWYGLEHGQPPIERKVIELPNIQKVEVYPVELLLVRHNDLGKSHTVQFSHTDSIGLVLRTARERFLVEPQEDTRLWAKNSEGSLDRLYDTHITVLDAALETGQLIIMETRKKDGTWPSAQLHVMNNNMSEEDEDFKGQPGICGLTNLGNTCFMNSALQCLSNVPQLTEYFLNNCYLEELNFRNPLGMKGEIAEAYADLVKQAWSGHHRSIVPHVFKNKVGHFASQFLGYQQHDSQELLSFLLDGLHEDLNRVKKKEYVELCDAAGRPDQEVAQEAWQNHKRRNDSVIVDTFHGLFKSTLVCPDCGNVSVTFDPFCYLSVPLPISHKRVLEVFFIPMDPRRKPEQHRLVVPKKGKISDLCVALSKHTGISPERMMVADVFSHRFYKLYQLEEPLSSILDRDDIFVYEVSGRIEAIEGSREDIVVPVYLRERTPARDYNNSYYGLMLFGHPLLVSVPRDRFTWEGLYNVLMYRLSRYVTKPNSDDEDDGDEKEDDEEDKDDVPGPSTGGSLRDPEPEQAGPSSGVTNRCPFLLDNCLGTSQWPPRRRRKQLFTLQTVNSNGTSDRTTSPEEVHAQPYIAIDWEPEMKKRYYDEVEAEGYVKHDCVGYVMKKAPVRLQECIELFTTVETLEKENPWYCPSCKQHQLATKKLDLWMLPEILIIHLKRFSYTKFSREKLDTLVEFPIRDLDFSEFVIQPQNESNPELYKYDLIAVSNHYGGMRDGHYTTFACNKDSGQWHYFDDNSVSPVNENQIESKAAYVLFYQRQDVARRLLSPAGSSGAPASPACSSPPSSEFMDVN

Results are given in words; binding and its absence hold for the method and conditions named. In cells and extracts the contact can be indirect. Some entries that bind do so weakly or less than the wild type.

This note sets out measurements from paper doi:10.1101/2022.05.17.492159.

For “B-cell lymphoma 2 (BCL2) (from UniProt P10415 1-239)”, the binding entry is reported as “binds”. For “ubiquitin-specific proteases 11 (USP11) (from UniProt P51784 1-963) (enzyme)” the value was “binds”.
